The record followed here is article doi:10.1101/2025.07.24.666629.

Protein sequences, listed by entry. Tags and fused reporters are not part of them. Residues count along the entry.
UniProt Q8BKF1, residues 42-1207: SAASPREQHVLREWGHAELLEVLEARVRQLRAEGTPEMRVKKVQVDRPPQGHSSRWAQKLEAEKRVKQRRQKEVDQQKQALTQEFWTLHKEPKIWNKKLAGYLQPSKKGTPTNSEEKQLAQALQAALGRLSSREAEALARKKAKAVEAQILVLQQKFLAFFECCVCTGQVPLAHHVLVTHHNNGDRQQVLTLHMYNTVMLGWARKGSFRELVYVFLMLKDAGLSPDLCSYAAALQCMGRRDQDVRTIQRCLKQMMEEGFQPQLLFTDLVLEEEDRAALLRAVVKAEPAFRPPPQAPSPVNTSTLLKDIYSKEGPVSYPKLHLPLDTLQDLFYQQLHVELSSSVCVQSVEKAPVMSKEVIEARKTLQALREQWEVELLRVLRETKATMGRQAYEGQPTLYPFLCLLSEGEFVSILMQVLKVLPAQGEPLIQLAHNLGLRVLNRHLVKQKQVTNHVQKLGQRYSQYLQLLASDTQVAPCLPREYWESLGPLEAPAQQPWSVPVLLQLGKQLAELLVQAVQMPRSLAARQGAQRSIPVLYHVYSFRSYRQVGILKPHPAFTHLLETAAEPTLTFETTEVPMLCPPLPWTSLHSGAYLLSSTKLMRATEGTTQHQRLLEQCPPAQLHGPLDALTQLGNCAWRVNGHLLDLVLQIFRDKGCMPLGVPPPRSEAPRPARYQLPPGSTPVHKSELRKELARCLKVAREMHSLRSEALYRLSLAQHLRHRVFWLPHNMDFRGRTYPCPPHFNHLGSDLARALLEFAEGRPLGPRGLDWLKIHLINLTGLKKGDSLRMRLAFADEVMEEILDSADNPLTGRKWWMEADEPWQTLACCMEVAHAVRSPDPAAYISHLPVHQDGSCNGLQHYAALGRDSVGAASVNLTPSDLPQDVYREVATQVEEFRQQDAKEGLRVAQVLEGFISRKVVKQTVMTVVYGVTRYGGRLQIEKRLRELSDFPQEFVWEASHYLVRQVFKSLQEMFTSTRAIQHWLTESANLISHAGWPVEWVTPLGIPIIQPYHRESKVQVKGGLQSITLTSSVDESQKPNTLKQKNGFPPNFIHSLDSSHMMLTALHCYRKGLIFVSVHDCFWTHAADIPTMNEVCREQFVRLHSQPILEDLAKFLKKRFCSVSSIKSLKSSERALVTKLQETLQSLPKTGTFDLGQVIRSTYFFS
UniProt Q9JLV6: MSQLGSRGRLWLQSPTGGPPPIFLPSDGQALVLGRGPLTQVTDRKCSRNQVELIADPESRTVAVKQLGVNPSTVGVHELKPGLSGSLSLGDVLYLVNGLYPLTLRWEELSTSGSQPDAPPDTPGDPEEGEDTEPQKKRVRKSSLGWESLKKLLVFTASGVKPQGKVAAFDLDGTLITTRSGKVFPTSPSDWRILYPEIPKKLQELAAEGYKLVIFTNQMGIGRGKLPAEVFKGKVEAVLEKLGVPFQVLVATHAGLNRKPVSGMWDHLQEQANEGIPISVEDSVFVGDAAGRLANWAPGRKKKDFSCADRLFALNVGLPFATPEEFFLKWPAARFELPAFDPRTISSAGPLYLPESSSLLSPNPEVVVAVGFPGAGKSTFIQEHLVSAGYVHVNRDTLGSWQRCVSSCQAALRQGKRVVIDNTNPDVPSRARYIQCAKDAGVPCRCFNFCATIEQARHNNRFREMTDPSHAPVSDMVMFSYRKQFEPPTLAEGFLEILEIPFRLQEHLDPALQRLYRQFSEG
UniProt O00411, residues 42-1230: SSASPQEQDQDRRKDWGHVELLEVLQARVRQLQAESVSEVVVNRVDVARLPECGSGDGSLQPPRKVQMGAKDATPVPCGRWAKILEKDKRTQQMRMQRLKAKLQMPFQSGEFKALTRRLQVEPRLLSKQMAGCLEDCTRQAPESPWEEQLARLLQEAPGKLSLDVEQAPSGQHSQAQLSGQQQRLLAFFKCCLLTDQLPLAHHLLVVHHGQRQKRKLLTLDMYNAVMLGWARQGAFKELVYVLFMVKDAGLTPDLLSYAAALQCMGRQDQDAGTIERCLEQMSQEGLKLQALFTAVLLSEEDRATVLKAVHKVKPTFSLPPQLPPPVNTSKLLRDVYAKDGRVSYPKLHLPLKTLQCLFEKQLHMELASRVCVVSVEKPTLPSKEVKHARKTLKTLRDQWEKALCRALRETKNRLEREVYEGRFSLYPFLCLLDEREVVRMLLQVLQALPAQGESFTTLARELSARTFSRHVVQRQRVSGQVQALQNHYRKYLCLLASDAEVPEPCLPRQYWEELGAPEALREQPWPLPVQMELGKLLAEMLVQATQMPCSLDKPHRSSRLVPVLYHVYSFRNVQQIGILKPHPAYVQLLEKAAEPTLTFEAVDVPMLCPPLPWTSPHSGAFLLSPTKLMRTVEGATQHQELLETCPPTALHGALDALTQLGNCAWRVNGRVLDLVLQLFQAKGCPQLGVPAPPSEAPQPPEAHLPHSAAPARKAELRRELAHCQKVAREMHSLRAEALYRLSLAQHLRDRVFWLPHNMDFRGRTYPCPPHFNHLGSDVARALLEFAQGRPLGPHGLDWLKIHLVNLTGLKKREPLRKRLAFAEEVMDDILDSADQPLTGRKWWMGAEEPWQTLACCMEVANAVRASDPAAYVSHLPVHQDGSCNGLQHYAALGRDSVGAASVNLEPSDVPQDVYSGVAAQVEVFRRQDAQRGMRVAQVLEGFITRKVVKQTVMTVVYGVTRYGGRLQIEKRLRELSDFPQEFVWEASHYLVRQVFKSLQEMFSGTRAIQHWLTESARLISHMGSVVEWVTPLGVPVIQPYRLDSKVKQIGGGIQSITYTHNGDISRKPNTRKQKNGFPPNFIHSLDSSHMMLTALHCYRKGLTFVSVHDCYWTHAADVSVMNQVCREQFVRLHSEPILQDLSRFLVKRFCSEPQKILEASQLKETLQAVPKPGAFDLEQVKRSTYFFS
UniProt Q9DCC8: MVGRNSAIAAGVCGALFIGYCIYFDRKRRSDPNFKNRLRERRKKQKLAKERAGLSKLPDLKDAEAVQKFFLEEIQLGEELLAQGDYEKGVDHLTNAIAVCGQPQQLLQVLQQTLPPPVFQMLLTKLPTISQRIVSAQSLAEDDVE
UniProt F8VPZ5: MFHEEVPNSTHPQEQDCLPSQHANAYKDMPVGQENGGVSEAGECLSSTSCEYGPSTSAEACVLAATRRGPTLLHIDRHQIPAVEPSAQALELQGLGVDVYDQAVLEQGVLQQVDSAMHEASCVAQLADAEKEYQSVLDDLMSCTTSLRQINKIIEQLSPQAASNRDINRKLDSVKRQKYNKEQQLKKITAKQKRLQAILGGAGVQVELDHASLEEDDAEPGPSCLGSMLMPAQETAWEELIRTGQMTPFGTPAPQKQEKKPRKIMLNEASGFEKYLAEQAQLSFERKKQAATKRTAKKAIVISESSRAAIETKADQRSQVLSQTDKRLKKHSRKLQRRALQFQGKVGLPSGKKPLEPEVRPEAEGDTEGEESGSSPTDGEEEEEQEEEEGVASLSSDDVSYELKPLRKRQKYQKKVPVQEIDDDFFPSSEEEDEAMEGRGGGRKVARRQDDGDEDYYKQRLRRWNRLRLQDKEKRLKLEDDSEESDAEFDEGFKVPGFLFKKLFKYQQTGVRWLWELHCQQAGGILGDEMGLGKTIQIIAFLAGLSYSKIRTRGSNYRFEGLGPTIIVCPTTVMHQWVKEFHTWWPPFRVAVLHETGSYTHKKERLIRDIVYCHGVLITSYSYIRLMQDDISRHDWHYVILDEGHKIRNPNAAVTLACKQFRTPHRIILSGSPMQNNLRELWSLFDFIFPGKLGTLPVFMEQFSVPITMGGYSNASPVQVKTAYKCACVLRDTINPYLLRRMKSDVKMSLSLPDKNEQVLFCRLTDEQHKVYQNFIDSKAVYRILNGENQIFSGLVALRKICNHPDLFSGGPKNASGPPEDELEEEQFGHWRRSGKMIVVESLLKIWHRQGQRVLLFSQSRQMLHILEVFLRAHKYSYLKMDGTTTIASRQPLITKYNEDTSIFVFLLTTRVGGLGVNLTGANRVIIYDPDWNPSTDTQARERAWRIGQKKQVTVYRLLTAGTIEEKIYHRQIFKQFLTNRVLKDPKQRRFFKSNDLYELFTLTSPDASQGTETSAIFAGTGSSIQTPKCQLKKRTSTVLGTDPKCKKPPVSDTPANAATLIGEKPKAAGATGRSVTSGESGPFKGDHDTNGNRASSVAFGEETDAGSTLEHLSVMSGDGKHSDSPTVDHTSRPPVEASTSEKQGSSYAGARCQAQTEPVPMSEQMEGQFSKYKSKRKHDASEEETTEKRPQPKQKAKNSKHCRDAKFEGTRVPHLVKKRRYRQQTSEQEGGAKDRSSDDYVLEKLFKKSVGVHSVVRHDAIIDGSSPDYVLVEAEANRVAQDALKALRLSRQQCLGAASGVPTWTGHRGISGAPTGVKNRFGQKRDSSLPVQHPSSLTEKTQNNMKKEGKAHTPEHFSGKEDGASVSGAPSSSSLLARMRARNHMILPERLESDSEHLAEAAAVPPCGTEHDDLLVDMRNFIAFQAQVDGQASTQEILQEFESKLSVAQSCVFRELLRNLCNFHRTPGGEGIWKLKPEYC
UniProt Q15388: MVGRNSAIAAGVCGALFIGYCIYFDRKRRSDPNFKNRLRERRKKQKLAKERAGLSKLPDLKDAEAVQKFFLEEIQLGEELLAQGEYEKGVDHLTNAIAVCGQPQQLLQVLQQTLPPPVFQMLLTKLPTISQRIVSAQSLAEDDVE
UniProt P54098: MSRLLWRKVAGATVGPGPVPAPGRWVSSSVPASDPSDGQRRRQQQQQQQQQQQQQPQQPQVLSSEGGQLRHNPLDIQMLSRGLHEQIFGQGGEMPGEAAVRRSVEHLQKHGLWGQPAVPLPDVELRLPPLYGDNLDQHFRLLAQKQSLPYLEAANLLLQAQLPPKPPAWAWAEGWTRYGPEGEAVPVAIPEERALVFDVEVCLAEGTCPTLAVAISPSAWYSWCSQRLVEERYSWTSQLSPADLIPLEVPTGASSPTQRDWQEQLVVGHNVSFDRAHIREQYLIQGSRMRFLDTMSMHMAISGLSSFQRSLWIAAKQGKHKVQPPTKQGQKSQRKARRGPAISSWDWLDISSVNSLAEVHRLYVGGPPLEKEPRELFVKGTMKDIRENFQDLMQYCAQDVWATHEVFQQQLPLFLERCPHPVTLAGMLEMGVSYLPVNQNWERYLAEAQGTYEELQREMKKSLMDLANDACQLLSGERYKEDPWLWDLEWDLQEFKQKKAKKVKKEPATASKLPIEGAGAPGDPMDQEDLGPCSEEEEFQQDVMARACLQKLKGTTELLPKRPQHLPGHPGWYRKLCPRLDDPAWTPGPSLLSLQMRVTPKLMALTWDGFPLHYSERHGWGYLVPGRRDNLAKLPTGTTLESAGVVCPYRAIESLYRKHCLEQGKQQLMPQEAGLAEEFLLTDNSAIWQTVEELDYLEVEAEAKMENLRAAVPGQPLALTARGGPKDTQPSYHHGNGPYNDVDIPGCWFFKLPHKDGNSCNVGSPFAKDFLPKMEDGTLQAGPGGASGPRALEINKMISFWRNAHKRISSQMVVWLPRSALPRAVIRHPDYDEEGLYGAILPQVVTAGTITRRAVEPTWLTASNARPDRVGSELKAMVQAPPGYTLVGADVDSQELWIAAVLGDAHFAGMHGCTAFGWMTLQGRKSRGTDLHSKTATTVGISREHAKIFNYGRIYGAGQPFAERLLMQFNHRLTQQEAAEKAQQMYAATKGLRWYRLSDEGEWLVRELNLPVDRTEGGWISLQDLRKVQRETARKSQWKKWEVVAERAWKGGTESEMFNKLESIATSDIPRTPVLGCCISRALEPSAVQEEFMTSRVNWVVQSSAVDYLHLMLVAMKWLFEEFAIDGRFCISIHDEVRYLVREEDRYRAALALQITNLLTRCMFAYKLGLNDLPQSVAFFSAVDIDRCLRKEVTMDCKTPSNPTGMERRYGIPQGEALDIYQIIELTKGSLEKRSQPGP

These are yes or no findings as the source states them, for the method shown. In cells and extracts the contact can be indirect. Some results given as binding are weak or reduced against the parent protein; the word gives no strength.

The target in experiment [1] is mitochondrial RNA polymerase (POLRMT), endogenous, mouse cortex (mouse (endogenous in C57BL/6 cortex)) (UniProt Q8BKF1). Kind of experiment: co-IP; endogenous HTT, TFAM, POLRMT or PNKP immunoprecipitated (MAB2170; ab176558; GTX105137; NBP1-87257) from mitochondrial extracts of wildtype C57BL/6 mouse cortex; mitochondria treated with trypsin, extracts treated with benzonase; western blot. For orientation: In western blotting, separated proteins are transferred to a membrane and probed.

The target in experiment [2] is PNKP, endogenous, mouse cortex (mouse (endogenous in C57BL/6 cortex)) (UniProt Q9JLV6). The experiment is described as above.
Experiment [3] concerns the target T1, TFAM, endogenous, mouse cortex (mouse (endogenous in C57BL/6 cortex)) (UniProt P40630).
T1 sequence: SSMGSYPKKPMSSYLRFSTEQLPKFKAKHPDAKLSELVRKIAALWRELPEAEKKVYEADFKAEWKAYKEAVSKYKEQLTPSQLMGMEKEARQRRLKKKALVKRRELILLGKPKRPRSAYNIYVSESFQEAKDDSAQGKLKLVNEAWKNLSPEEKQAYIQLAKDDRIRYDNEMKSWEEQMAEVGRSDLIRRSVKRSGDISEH
The description is as above.

The target of experiment [4] is Huntingtin (HTT), endogenous wild-type (human (endogenous in SH-SY5Y)) (UniProt P42858). The experiment is described as follows: co-IP; endogenous HTT immunoprecipitated with anti-HTT mouse monoclonal Ab (MAB2170) from mitochondrial extracts of SH-SY5Y cells; mitochondria treated with trypsin, extracts treated with benzonase; washes with TBS (150 mM KCl), 1 mM EDTA, 1% Triton X-100, 10% glycerol; western blot.

Experiment [5] has the same target. Kind of experiment: proximity ligation; Duolink PLA on fixed, permeabilised SH-SY5Y cells (control cells and cells overexpressing wtHTT-Q19), without and with glucose oxidase (300 ng/mL, 30 min); mitochondria stained with MitoTracker Red; signals increased after glucose oxidase (HTT-TFAM 3 to 4-fold).
Experiment [6] concerns the target T2, mitochondrial transcription factor TFAM, endogenous (human (endogenous in SH-SY5Y)) (UniProt Q00059).
T2 sequence: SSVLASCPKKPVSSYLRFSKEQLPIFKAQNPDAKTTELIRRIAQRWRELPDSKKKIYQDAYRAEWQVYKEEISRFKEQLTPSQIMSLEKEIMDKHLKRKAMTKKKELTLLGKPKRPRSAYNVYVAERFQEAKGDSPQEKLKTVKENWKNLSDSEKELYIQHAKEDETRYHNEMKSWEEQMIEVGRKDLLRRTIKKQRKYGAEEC
Described as above.

For experiment [7], the target named is Huntingtin (HTT), endogenous, mouse cortex (mouse (endogenous in C57BL/6 cortex)) (UniProt P42859). Kind of experiment: co-IP; endogenous HTT, TFAM, POLRMT or PNKP immunoprecipitated (MAB2170; ab176558; GTX105137; NBP1-87257) from mitochondrial extracts of wildtype C57BL/6 mouse cortex; mitochondria treated with trypsin, extracts treated with benzonase; western blot.

Experiment [8] addresses mitochondrial RNA polymerase (POLRMT), endogenous (human (endogenous in SH-SY5Y)) (UniProt O00411). The experiment is described as follows: proximity ligation; Duolink PLA on fixed, permeabilised SH-SY5Y cells (control cells and cells overexpressing wtHTT-Q19), without and with glucose oxidase (300 ng/mL, 30 min); mitochondria stained with MitoTracker Red; signals increased after glucose oxidase (HTT-TFAM 3 to 4-fold).

The target of experiment [9] is Huntingtin (wtHTT), endogenous, post-mortem human brain (human (endogenous in post-mortem brain)) (UniProt P42858). Kind of experiment: proximity ligation; PLA on post-mortem human brain sections with anti-POLRMT or anti-POLGA (rabbit) and anti-HTT (goat) Abs; mitochondria stained with anti-MT-Co1.
Experiment [10] concerns the target Huntingtin (HTT), endogenous wild-type (human (endogenous in SH-SY5Y)) (UniProt P42858). Kind of experiment: proximity ligation; Duolink PLA on fixed, permeabilised SH-SY5Y cells (control cells and cells overexpressing wtHTT-Q19), without and with glucose oxidase (300 ng/mL, 30 min); mitochondria stained with MitoTracker Red; signals increased after glucose oxidase (HTT-TFAM 3 to 4-fold). This is another data set of the same source.

In the case of “Huntingtin (HTT), endogenous, mouse cortex (from UniProt P42859 1-3119)”, the binding result in [1], in [2] and in experiment [3] was “binds” throughout.
For “polynucleotide-kinase-3'-phosphatase (PNKP), endogenous (from UniProt Q96T60 1-521)”, the binding result in experiment [4], in experiment [5] and in experiment [6] was “binds” in each case.
As for “mitochondrial RNA polymerase (POLRMT), endogenous, mouse cortex (from UniProt Q8BKF1 42-1207)”, the binding entry in experiment [2], in experiment [7] and in experiment [3] was “binds” in each case.
In the case of “mitochondrial RNA polymerase (POLRMT), endogenous (from UniProt O00411 42-1230)”, the binding entry in experiment [4] and in experiment [5] was “binds” throughout.
In the case of “Cockayne syndrome protein B (CSB), endogenous (from UniProt Q03468 1-1493)”, the binding entry in [4] and in [8] was “binds” in each case.
For the molecule “TOM20, endogenous, mouse cortex (from UniProt Q9DCC8 1-145)”, the binding result in [1], in experiment [2], in experiment [7] and in [3] was “no binding” in each case.
In the case of “Cockayne syndrome protein B (CSB), endogenous, mouse cortex (from UniProt F8VPZ5 1-1481)”, the binding result in [1], in experiment [2], in experiment [7] and in experiment [3] was “binds” each time.
Regarding “TOM20 (an outer mitochondrial membrane protein), endogenous (from UniProt Q15388 1-145)”, in experiment [4], the binding entry is listed as “no binding”.
Consider “mtDNA polymerase gamma (POLGA), endogenous, post-mortem human brain (from UniProt P54098 1-1239)”, for which the binding result in experiment [9] is reported as “binds”.
As to “POLGA (catalytic subunit of mitochondria-specific DNA polymerase gamma), endogenous (from UniProt P54098 1-1239)”, the binding result in experiment [4] is on record as “binds”.
In the case of “mitochondrial RNA polymerase (POLRMT), endogenous, post-mortem human brain (from UniProt O00411 42-1230)”, the binding result in experiment [9] was “binds”.
Consider “PNKP, endogenous, mouse cortex (from UniProt Q9JLV6 1-522)”, for which the binding entry in [1], in experiment [7] and in [3] was “binds” each time.

B1: TFAM, endogenous, mouse cortex (protein, UniProt P40630 43-243)
chain: T1 sequence
Take B1: the binding entry in [1], in experiment [2] and in experiment [7] was “binds” throughout.

B2: mitochondrial transcription factor TFAM, endogenous (protein, UniProt Q00059 43-246)
chain: T2 sequence
Regarding B2, the binding result in [4] and in experiment [10] was “binds” in each case.

B3: POLGA, endogenous, mouse cortex (protein, UniProt P54099 1-1218)
chain: MSRLLWKKVAGAKVASGPVPATARWVASSVLDPVPSDGRPPSQMPSSENGQLRLNPLLIQMLSRGLHEQIFGCGGEMPDEAAVQRSVEHLQKHGLWGQPATPLPDVELRLPRLFGGNLDQHFRLLAQKQSLPYLEAAASLLEAQLPPEPKSWAWAEGWTRYGPEGEAEPVAIPEERALVFDVEVCLAEGTCPTLAVAISPSAWYSWCSRRLVEERYSWTSQLSPADLIPLGGSTSASSSTKQDGQEQLVVGHNVSFDRAHIREQYLIQDSRMRFLDTMSMHMAISGLSSFQRSLWMGAKQGKHKNPAAHKARAEVPEESQWSSESSSWDWMDISSANNLADVHNLYVGGPPLEKEPRELFVKGSMRDIRENFQDLMQYCARDVWATFEVFQQQLPLFLERCPHPVTLAGMLEMGVSYLPVNQNWERYLTEAQNTYEELQREMKKSLMDLANDACQLLSGERYKEDPWLWDLEWDLQEFKQKKAKKVKKPASASKLPIEGAGPFGDPMDQEDPGPPSEEEELQRSVTAHNRLQQLRSTTDLLPKRPQHLPGHPGWYRQLCPRLDDPAWAPGPSLLSLQMRVTPKLMALTWDGFPLHYSDSHGWGYLVPGRRDNLTEPPVSPTVESAAVTCPYRAIESLYRKHCLEQGKQQLEPQEVDLAEEFLLTDNSAMWQTVEELGCLDVEAEAKMENSGLSQPLVLPAACAPKSSQPTYHHGNGPYNDVNIPGCWFFKLPHKDGNNYNVGSPFAKDFLPKMEDGTLQAGPGGASGPRALEINKMISFWRNAHKRISSQMVVWLPRSALPRVVTRHPAFDEEGHYGAILPQVVTAGTITRRAVEPTWLTASNARPDRVGSELKAMVQAPPGYVLVGADVDSQELWIAAVLGDAHFAGMHGCTAFGWMTLQGRKSRGTDLHSKTAATVGISREHAKIFNYGRIYGAGQSFAERLLMQFNHRLTRQEAAEKAQQMYAVTKGLRRYRLSADGEWLVKQLNLPVDRTEDGWVSLQDLRMIRREASRKSRWKKWEVAAERAWTGGTESEMFNKLESIAMSDTPRTPVLGCCISRALEPSVVQGEFITSRVNWVVQSSAVDYLHLMLVAMKWLFEEFAIDGRFCISIHDEVRYLVREEDRYRAALALQITNLLTRCMFAYKLGLNDLPQSVAFFSAVDIDQCLRKEVTMDCKTPSNPTGMERRYGIPQGEALDIYQIIELTKGSLEKRSQPGP
Consider B3, for which the binding entry in experiment [1], in [2], in experiment [7] and in [3] was “binds” in each case.
